The other results are listed elsewhere or left out.
Each molecule was assayed on T1, CTL2-GFP (C. trachomatis L2/434/Bu, GFP-expressing). Settings: bulk GFP, single well; 28.5 h, 10 µM; inhibitor.
T1 construct: L2/434/Bu, GFP-expressing
Design: species or system HeLa; Intracellular C. trachomatis growth in HeLa cells, bulk GFP fluorescence relative to DMSO
CC(Oc1cccc(Cl)c1)C(=O)NCc1ccc(S(N)(=O)=O)cc1 (stereo not shown) [CBK265477] was tested, and the “% of control remaining” value was 100%. In the case of COc1ccccc1CC(=O)N1CCC(c2onc3c2CCC3)CC1 [CBK284464], the “% of control remaining” value is reported as 78.4301%. In the case of CN1C(=O)CC2(C1=O)C(=O)N(CCCn1c(=O)n(C)c3ccccc31)c1ccc(F)cc12 (stereo not shown) [CBK075441], the “% of control remaining” value is reported as 82.0923%. In the case of CCOC(=O)c1ccccc1OC(=O)c1ccc2c(c1)C1C=CCC1C(C(=O)O)N2 (stereo not shown) [CBK265155], the “% of control remaining” value is reported as 120.277%. With CC(C)c1cccc(-n2cc(O)c(C(=O)NCCCn3cccn3)n2)c1 [CBK305360] the “% of control remaining” value was 114.689%. With COc1ccc(C(NC(=O)C2CCN(C(=O)OCc3ccccc3)CC2)c2ccccc2C)cn1 (stereo not shown) [CBK059726] the “% of control remaining” value was 106.989%. In the case of c1ccc2sc(-c3cc(N4CCN(CCN5CCCC5)CC4)ncn3)cc2c1 [CBK091172], the “% of control remaining” value is reported as 88.5478%. CCOC(=O)c1ccc(COc2cccc(-c3cnc4ccccc4n3)c2)cc1 [CBK266395] was tested, and the “% of control remaining” value was 121.218%. C[C@]12C(=O)c3ccccc3NC(=O)C1[C@H]2C(=O)N1CCCCC1 (stereo partly shown) [CBK285281] was tested, and the “% of control remaining” value was 134.333%. For CSc1nc(N)n(-c2cc(C(F)(F)F)cc(C)n2)n1 [CBK005941], the “% of control remaining” value was 128.477%. For COc1cccc(C2C=C(c3cccnc3)Nc3ncnn32)c1OC (stereo not shown) [CBK288062], the “% of control remaining” value was 143.487%. With CC(C)c1nccn1-c1ccc(NC(=O)Cn2ccnc2)cc1 [CBK281381] the “% of control remaining” value was 116.22%. With Cc1sc(NC(=O)CC(C)(C)CC(=O)Nc2sc(C)c(C)c2C(=O)O)c(C(=O)O)c1C [CBK296094] the “% of control remaining” value was 126.923%. With CC(C)C12CN3CC(C(C)C)(CN(C1)C3c1c[nH]c3ccccc13)C2=O (stereo not shown) [CBK263740] the “% of control remaining” value was 108.96%. With O=C(CSc1nnc(-c2ccccn2)[nH]1)NC1CC2CCC1C2 (stereo not shown) [CBK269994] the “% of control remaining” value was 107.214%. COc1cncc(-c2cc(N3CCN(S(=O)(=O)c4ccc(Cl)cc4)CC3)ncn2)c1 [CBK091162] was tested, and the “% of control remaining” value was 94.8552%. In the case of COc1ccc(N2CC(NC(=O)Nc3ccccn3)CC2=O)cc1 (stereo not shown) [CBK287642], the “% of control remaining” value is reported as 120.013%. With CCn1cc(Cl)c(C(=O)NC2CCN(c3cc(C)n[nH]3)CC2)n1 [CBK304322] the “% of control remaining” value was 118.299%. In the case of CS(=O)(=O)c1ccc(Cn2c(=O)n(S(=O)(=O)c3ccccc3)c3ccccc32)cc1 [CBK106530], the “% of control remaining” value is reported as 156.513%. For CCN(CC)C(=O)CSc1nnc[nH]1 [CBK026212], the “% of control remaining” value was 128.821%. In the case of O=C(c1cc(F)c(F)cc1F)N1CCC2(CCCN(CCS(=O)(=O)c3ccccc3)C2)C1 (stereo not shown) [CBK132003], the “% of control remaining” value is reported as 107.6%. In the case of O=C(Nc1ccc(F)cc1)c1[nH]c2ccccc2c1NS(=O)(=O)c1ccc(Cl)c(Cl)c1Cl [CBK050091], the “% of control remaining” value is reported as 70.8366%. O=c1c2c(nc(SCCc3ccccc3)n1CCc1ccccc1)-c1ccccc1CC21CCCCC1 [CBK262661] was tested, and the “% of control remaining” value was 111.308%. With CC(C)(C)c1cc(CN2CCCCC2)c(C(=O)O)o1 [CBK266556C] the “% of control remaining” value was 151.638%. With Cc1cccc(-c2ncc(C(=O)NCCCN3CCCC3=O)cc2-c2ccco2)c1 [CBK037455] the “% of control remaining” value was 163.146%. For CCn1cc(CN2CCC(O)(c3ccc(C)cc3)CC2)cn1 [CBK282735], the “% of control remaining” value was 127.086%. O=C(Nc1ccccc1[N+](=O)[O-])C(c1ccccc1)N1CCOCC1 (stereo not shown) [CBK269390] was tested, and the “% of control remaining” value was 117.807%. With c1cncc(-c2cc(NCCc3ccncc3)ncn2)c1 [CBK037716] the “% of control remaining” value was 96.5059%. For c1ccc(CCCNc2ncc(-c3ccc(N4CCOCC4)cc3)n3ccnc23)cc1 [CBK091223], the “% of control remaining” value was 156.25%. With O=C1NCCCC12CCN(Cc1cccc3ncccc13)CC2 [CBK285033] the “% of control remaining” value was 130.126%. CCOC(=O)N1CCN(Cc2ccc(OCC3CCCNC3)cc2)CC1 (stereo not shown) [CBK307355] was tested, and the “% of control remaining” value was 139.117%. For Cc1sc(NC(=S)NC(=O)c2ccco2)c(C(N)=O)c1C [CBK266272], the “% of control remaining” value was 189.891%. CC(Nc1ncnc2c1cnn2C)c1ccccc1 (stereo not shown) [CBK288093] was tested, and the “% of control remaining” value was 131.644%. With CN1CCC(N(C)C/C(Cl)=C/c2ccccc2)CC1 [CBK261903] the “% of control remaining” value was 100%. For COCCNC(=O)N1CCN(c2ccccc2)CC1 [CBK155181], the “% of control remaining” value was 101.839%. In the case of O=C(CN1C(=O)COc2ccccc21)NCc1ccco1 [CBK269682], the “% of control remaining” value is reported as 127.408%. O=C(O)C1CCCCC1C(=O)N1CCc2ccccc2C1 (stereo not shown) [CBK286594] was tested, and the “% of control remaining” value was 98.0746%. O=C(Nc1ncc(-c2ccccc2)s1)c1csc([N+](=O)[O-])c1 [CBK298293] was tested, and the “% of control remaining” value was 132.813%. With Cc1ccccc1C1(O)CCN(CC(O)c2ccc3c(c2)CCC3)CC1 (stereo not shown) [CBK286329] the “% of control remaining” value was 111.697%. For O=C(Cc1ccccc1)N1CCN(S(=O)(=O)N2CCCCC2)CC1 [CBK269097], the “% of control remaining” value was 154.756%. With Cc1onc(-c2ccccc2Cl)c1C(=O)N(Cc1nc(-c2ccccc2)no1)C(C)C [CBK269289] the “% of control remaining” value was 79.6621%. CCn1c(=O)n(CCC(N)=O)c2cc(S(=O)(=O)N(C)C)ccc21 [CBK305577] was tested, and the “% of control remaining” value was 139.953%. In the case of O=C(NS(=O)(=O)c1cccc(-c2nnco2)c1)C1CC1C1CCCCC1 (stereo not shown) [CBK305924], the “% of control remaining” value is reported as 17.3338%. O=C(O)c1ccc(N2C(=O)CC(N3CCN(c4cccc(C(F)(F)F)c4)CC3)C2=O)cc1 (stereo not shown) [CBK287228] was tested, and the “% of control remaining” value was 142.985%. For CCCN1CCN(S(=O)(=O)c2ccc(C)cc2)CC1 [CBK270326], the “% of control remaining” value was 137.103%. For COc1cccc2ncn(CCCc3nc(C)c(C)s3)c(=O)c12 [CBK307208], the “% of control remaining” value was 130.854%. For COc1cccc(OC)c1-c1cn2ccnc2c(NC2CC2)n1 [CBK038020], the “% of control remaining” value was 205.551%. In the case of Cc1cc(NC(=O)N2CCCN(CC3CCCCC3)CC2)no1 [CBK306239], the “% of control remaining” value is reported as 141.389%. With O=C(CCNS(=O)(=O)c1ccc(Cl)cc1)Nc1ccncc1 [CBK269244] the “% of control remaining” value was 143.583%. In the case of Cc1ccc(C)c(-n2nnnc2SCC(=O)c2ccc(Cl)cc2Cl)c1 [CBK141941], the “% of control remaining” value is reported as 88.1044%. For Cc1ccc(-c2nnc(-c3cccc(S(=O)(=O)N4CCOCC4)c3)o2)cc1 [CBK263215], the “% of control remaining” value was 101.346%. For COC(=O)NC(O)C(=O)c1ccco1 (stereo not shown) [CBK027757], the “% of control remaining” value was 108.312%. For CC1(C)CC(NC(=O)Cn2ccc3ccccc32)CCO1 (stereo not shown) [CBK304347], the “% of control remaining” value was 134.606%. With CC(=O)c1sc(=S)n(N(C)C)c1C [CBK006774] the “% of control remaining” value was 109.028%. For OC(COc1ccccc1)CN1CCN(Cc2ccccc2)CC1 (stereo not shown) [CBK074852C], the “% of control remaining” value was 127.284%. COc1ccc2[nH]cc(C3CCN(Cc4nc(C)no4)CC3)c2c1 [CBK305982] was tested, and the “% of control remaining” value was 131.255%. In the case of CCN(CC)C(=O)CN1CCN(c2nccnc2OCc2ccc(Cl)c(Cl)c2)CC1 [CBK083081T], the “% of control remaining” value is reported as 115.256%. For Cc1cc(C(=O)NC(C)C2CC3CCC2C3)c2cnn(C(C)C)c2n1 (stereo not shown) [CBK281652], the “% of control remaining” value was 104.032%. CC(=O)c1ccc(-c2nccnc2NCc2cccc([N+](=O)[O-])c2)s1 [CBK037509] was tested, and the “% of control remaining” value was 76.0756%. For CN1CCN(CC(=O)Nc2ccc(OCc3ccccc3)cc2)CC1 [CBK264844], the “% of control remaining” value was 110.804%. For CCOC(=O)Nc1ccc(S(=O)(=O)Nn2cnnc2)cc1 [CBK262138], the “% of control remaining” value was 99.155%. CC(C)C(C(=O)Nc1ccc(S(=O)(=O)Nc2nccs2)cc1)N1C(=O)c2ccccc2C1=O (stereo not shown) [CBK265707] was tested, and the “% of control remaining” value was 100%. With COc1ccc(S(=O)(=O)Nc2cccc(C(=O)O)c2)cc1C(=O)O [CBK264069] the “% of control remaining” value was 119.655%. In the case of CC(=O)N(C)c1nc(-c2ccccc2)ccc1C(=O)Nc1ccc2c(c1)OCO2 [CBK106342], the “% of control remaining” value is reported as 127.639%. In the case of Cc1cc2nnn(C[C@@H](C)NC(=O)c3ccco3)c2cc1C [CBK282366], the “% of control remaining” value is reported as 123.38%. With O=C(Cc1c(Cl)cccc1Cl)Nc1ccc2[nH]ccc2c1 [CBK159664] the “% of control remaining” value was 131.321%. In the case of CC1(CNC(=O)C2CC(=O)N(C3CCCCC3)C2)COC1 (stereo not shown) [CBK281754], the “% of control remaining” value is reported as 83.3786%. With CC(=O)N(C)c1ncc(Br)cc1C(=O)NCc1nc2ccccc2[nH]1 [CBK076522] the “% of control remaining” value was 154.36%. COc1ccc(OC)c(NC(=O)CSc2nnc(-c3ccncc3)n2C)c1 [CBK266623] was tested, and the “% of control remaining” value was 148.185%. For O=C(O)c1ccc(/C=N/N2CCN(Cc3ccc(Cl)cc3)CC2)cc1 [CBK263561], the “% of control remaining” value was 125.685%. In the case of Fc1ccc(Oc2nccnc2N2CCN(CC3CC3)CC2)cc1 [CBK083033T], the “% of control remaining” value is reported as 113.871%. In the case of CN(C)CCCO/N=C1\CC2(CCCC2)c2ccccc21 [CBK013331], the “% of control remaining” value is reported as 135.411%. For Cc1ccccc1-c1ccccc1CC1(C(=O)N(C)C)CCN(C(=O)CC(C)C)CC1 [CBK285714], the “% of control remaining” value was 121.127%. In the case of Cc1ccc(C(=O)C2=C(O)C(=O)N(CCCn3ccnc3)C2c2cccc([N+](=O)[O-])c2)cc1 (stereo not shown) [CBK263319], the “% of control remaining” value is reported as 107.888%. For Clc1ccc(-c2noc(-c3ccco3)n2)cc1 [CBK026405], the “% of control remaining” value was 120.798%. In the case of Cc1ccc(S(=O)(=O)N(CC(=O)O)c2cccc(Cl)c2)cc1 [CBK262387], the “% of control remaining” value is reported as 113.711%. For Cc1ccc2[nH]c3c(c2c1)CCOC31CCN(Cc2ccccc2-c2ccccc2)CC1 [CBK039915], the “% of control remaining” value was 34.3876%. With O=C(O)c1ccc(CNCc2ccc(-c3ccc(F)cc3)o2)cc1 [CBK269622C] the “% of control remaining” value was 136.291%. In the case of CCCNC(=O)c1cc(C2CCCN(Cc3ccccc3)C2)no1 (stereo not shown) [CBK283388], the “% of control remaining” value is reported as 140.559%.

From publication PMC12040169 (PLOS Biology, 2025)
